Measurements as given in PubChem BioAssay AID1671190 (National Center for Advancing Translational Sciences (NCATS), 2021).
Out of some 580,000 compounds screened, about 6,100 (1.1%) were called active. The inconclusive results got no clear call from the source; some entries with a clear call stand among them for comparison. Calls come from the whole dose curve; as a rule, active = well fitted inhibition curve with a large enough effect; inconclusive = small, poorly fitted or top-dose-only effect, or another doubt; inactive = no such curve, though single readings can be large or run the other way. Where the call is inconclusive, the potency comes from a doubtful curve fit.

By UniProt entry, the sequences of proteins in these tests, tags left out. Where a name states a change or a piece, a line headed by the entry shows the natural chain unless it says otherwise.
UniProt P18054: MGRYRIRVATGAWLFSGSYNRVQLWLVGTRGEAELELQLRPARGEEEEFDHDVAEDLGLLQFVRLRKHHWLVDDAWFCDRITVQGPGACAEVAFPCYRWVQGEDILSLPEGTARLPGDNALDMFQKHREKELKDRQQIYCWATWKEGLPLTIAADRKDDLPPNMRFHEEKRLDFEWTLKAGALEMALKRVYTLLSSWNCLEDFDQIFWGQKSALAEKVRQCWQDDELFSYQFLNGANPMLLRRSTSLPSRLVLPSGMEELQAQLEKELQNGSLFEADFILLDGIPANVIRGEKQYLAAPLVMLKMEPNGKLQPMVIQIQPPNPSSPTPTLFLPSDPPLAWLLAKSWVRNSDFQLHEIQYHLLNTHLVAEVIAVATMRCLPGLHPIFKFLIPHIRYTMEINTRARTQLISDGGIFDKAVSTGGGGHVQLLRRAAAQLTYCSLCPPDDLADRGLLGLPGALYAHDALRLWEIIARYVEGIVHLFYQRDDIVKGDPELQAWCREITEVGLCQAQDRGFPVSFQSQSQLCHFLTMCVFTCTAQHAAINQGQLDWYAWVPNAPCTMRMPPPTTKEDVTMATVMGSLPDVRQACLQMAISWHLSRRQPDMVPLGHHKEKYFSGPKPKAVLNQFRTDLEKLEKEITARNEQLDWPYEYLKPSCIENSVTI

target: Polyunsaturated fatty acid lipoxygenase ALOX12 (Homo sapiens) (UniProt P18054); assay: Primary qHTS assay for inhibitors of human arachidonate 12S-lipoxygenase (ALOX12): Round 2; details: purified 12hLO, xylenol orange hydroperoxide absorbance; activity change, negative = inhibition: at 108 µM (top of the series) unless noted
How it was run: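 Purified human 12hLO at 150 nM in 25 mM Hepes, 0.01% Triton X-100, pH 7.0, preincubated 15 min at room temperature with compound. Reaction started with 40 uM arachidonic acid, 30 min at room temperature. Hydroperoxide measured by Fe-xylenol orange, 573/405 nm absorbance ratio.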
% is set by controls: 0 for no effect and ±100 for the full control effect; potency is the fitted concentration of half-maximal effect.

Row | SMILES | Potency | activity change, negative = inhibition
1 | COc1cc(NC(=O)C(CC(C)C)NS(=O)(=O)c2ccc3c(c2)CCCC(=O)N3)cc(OC)c1 (stereo unspecified) | inconclusive: 224 µM [inhibitor, partial curve, poor fit] | 
2 | Cc1ccc2nsnc2c1NC(=O)c1cncc(Br)c1 | inconclusive: 2.82 µM [inhibitor, full curve, poor fit] | 
3 | OCCNC1=NCCN1 | inconclusive: 112 µM [inhibitor, single point] | 
4 | Cc1nc(C)c(CC(=O)Nc2nnc(C(C)C)s2)c(=O)[nH]1 |  | inactive: -4.15%
5 | CCCOc1ccc(/C=C(/C#N)c2nc3ccccc3[nH]2)c(OCCC)c1 |  | inactive: -3.65%
6 | CC(C)c1ccccc1-n1c(SCC(=O)N2CCc3ccccc3C2)nc2ccccc2c1=O |  | inactive: -7.23%
7 | O=S(=O)(c1ccccc1F)N1CCN(Cc2cc3c(cc2O)OCO3)CC1 |  | inactive: 157%
8 | CN(C)CCNC(=O)C[C@@H]1c2nc(NC(=O)c3ccc(C(C)(C)C)cc3)sc2C[C@@H]2[C@](C)(CO)[C@H](O)CC[C@]21C | inconclusive: 15.8 µM [inhibitor, full curve, poor fit] | 
9 | COC(=O)[C@H](NC(=O)[C@@H]1[C@@H](NC(=O)Nc2cccc(SC)c2)CCN1C(=O)c1cccn1C)C(C)C | inconclusive: 39.8 µM [inhibitor, partial curve, poor fit] | 
10 | CC(C)c1ccc(/C=c2\sc3nc(-c4ccncc4)nn3c2=O)cc1 | inconclusive: 50.1 µM [inhibitor, single point] | 
11 | CC(Cc1ccc(Br)cc1)NC(=O)C1CCCC1 (stereo unspecified) | inconclusive: 44.7 µM [inhibitor, partial curve, poor fit] | 
12 | CCOC(=O)C1CCCN(CC(O)COc2ccc(OC)cc2C(C)(C)C)C1 (stereo unspecified) | inconclusive: 3.16 µM [inhibitor, full curve] | 
13 | c1cncc(OC2CCN(Cc3ccc4c(c3)CN(Cc3ccc5c(c3)OCO5)CCO4)CC2)c1 |  | inactive: 8.26%
14 | CSc1ccc(CN2CCC(C)(Oc3cnc(Cl)c4ccccc34)C2)cc1 (stereo unspecified) | inconclusive: 44.7 µM [inhibitor, partial curve, poor fit] | 
15 | Cc1ccc(C)c(N2CCN(C(=O)c3cnc4c(-c5ccccc5)c(C)nn4c3C)CC2)c1 | inconclusive: 100 µM [inhibitor, partial curve, poor fit] | 
16 | Cc1cccc(NC(=O)C(C)SCc2nc3sc4c(c3c(=O)[nH]2)CCCC4)n1 (stereo unspecified) | inconclusive: 44.7 µM [inhibitor, partial curve, poor fit] | 
17 | COCCNC(=O)CCn1c(=O)oc2ccccc21 |  | inactive: 10.2%
18 | COc1ccc2c(c1)CCc1c(C(=O)N3CCCc4ccccc43)noc1-2 |  | inactive: -18.8%
19 | Cc1ccc(Cn2cnc3c2c(=O)n(C)c(=O)n3C)cc1 |  | inactive: -3.23%
20 | COc1cc(C)c(Cl)cc1S(=O)(=O)NCCc1c(C)[nH]c2ccccc12 | inconclusive: 63.1 µM [inhibitor, partial curve, poor fit] | 
21 | N#C/C(=C/c1ccc(OC(F)F)cc1)c1ccccn1 | inconclusive: 44.7 µM [inhibitor, partial curve, poor fit] | 
22 | CC(C)C1C(=O)N(Cc2cn(Cc3ccco3)nn2)CCS(=O)(=O)N1Cc1ccc(-c2ccc(Cl)c(Cl)c2)cc1 (stereo unspecified) | inconclusive: 44.7 µM [inhibitor, partial curve, poor fit] | 

Row | SMILES | Potency | activity change, negative = inhibition
23 | Cc1nc2nc(C(F)(F)F)[nH]n2c(=O)c1Cc1ccccc1Cl |  | inactive: -32%
24 | C=CCN1CN(S(=O)(=O)c2cccc(Cl)c2)c2nc3ccccc3nc21 | inconclusive: 39.8 µM [inhibitor, single point] | 
25 | Cc1nnc(NC(=O)CSc2nccn2-c2cccc(Cl)c2)s1 |  | inactive: 1.57%
26 | O=C(CCC(=O)N(CC(=O)NC1CCCC1)Cc1ccc2c(c1)OCO2)Nc1nccs1 |  | inactive: 5.12%
27 | CCOc1cc(C2C(C(=O)OC)=C(C)NC3=C2C(=O)c2ccccc23)ccc1OCc1ccccc1 (stereo unspecified) | inconclusive: 39.8 µM [inhibitor, partial curve, poor fit] | 
28 | CC(OC(=O)c1c[nH]c2ccccc12)C(=O)NCc1ccccc1 (stereo unspecified) | inconclusive: 56.2 µM [inhibitor, partial curve, poor fit] | 
29 | COc1ccc(-c2cc(=O)n3[nH]cnc3n2)cc1 | inconclusive: 35.5 µM [inhibitor, partial curve, poor fit] | 
30 | O=C(CCC(=O)N1CC2CCCN2c2ccccc21)NCc1ccccc1Cl (stereo unspecified) | inconclusive: 141 µM [inhibitor, partial curve, poor fit] | 
31 | CCOC(=O)c1oc2cc(C)cc(O)c2c(=O)c1-c1csc(C)n1 | inconclusive: 7.94 µM [inhibitor, partial curve, poor fit] | 
32 | COc1cc(OC)c(Nc2nc3ccc(C)cc3n3nnnc23)cc1Cl |  | inconclusive: -40.3% [inhibitor]
33 | COC(=O)C[C@H]1c2cc(F)ccc2S(=O)(=O)N1C(C)C | inconclusive: 100 µM [inhibitor, single point] | 
34 | COc1ccc(C(OCC(O)CNC(C)c2ccccc2)c2ccc(OC)cc2)cc1 (stereo unspecified) | inconclusive: 56.2 µM [inhibitor, partial curve, poor fit] | 
35 | CC(C)CCOC(=O)/C(=C/c1ccco1)NC(=O)/C=C/c1ccccc1 | active: 39.8 µM | 
36 | CCN(C(=O)COC(=O)Cc1sc(N)nc1-c1ccc(C)cc1)c1cccc2ccccc12 |  | inactive: -2.46%
37 | CCOC(=O)C1(CC2CCCCO2)CCN(Cc2ccccc2-c2ccco2)CC1 (stereo unspecified) | inconclusive: 56.2 µM [inhibitor, partial curve, poor fit] | 
38 | Cc1ccccc1OC(=O)n1c(=S)oc2cc(Cl)ccc21 | inconclusive: 20 µM [inhibitor, partial curve, poor fit] | 
39 | CCC(CO)Nc1nc2c(c(=O)n(C)c(=O)n2C)n1Cc1c(F)cccc1Cl (stereo unspecified) |  | inactive: -5%
40 | CCCCN(C)C(=O)C1CCN(Cc2cccc(OCc3ccccc3)c2)CC1 | active: 5.62 µM | 
41 | COc1ccc(CNC23CC4CC(CC(C4)C2)C3)c2ccccc12 | inconclusive: 50.1 µM [inhibitor, partial curve, poor fit] | 
42 | CC(C)CN1CCN(C(=O)CCC[C@H]2NC[C@@H]3C[C@H]2CN(Cc2ccccc2)C3)CC1 | inconclusive: 5.62 µM [inhibitor, full curve] | 
43 | CCSC1=N/C(=C\c2ccccc2)C(=O)N1 |  | inactive: -19.8%
44 | Cc1nc(-c2ccccc2)n(Cc2ccc(F)cc2F)c(=O)c1CCO | inconclusive: 28.2 µM [inhibitor, partial curve] | 

Row | SMILES | Potency | activity change, negative = inhibition
45 | COc1cc(=O)n2c(c1C(=O)N1CCN(c3ccc(C)cc3)CC1)CCCC2 | inconclusive: 7.08 µM [inhibitor, full curve] | 
46 | CNC(=O)c1ccc(-c2nc(CN3CCN(C(=O)Nc4ccccc4Cl)CC3)c(C)o2)cc1 |  | inactive: 5.99%
47 | COC(=O)c1cccc2c1C(=O)c1cc([N+](=O)[O-])ccc1-2 | inconclusive: 8.91 µM [inhibitor, full curve, poor fit] | 
48 | COCCCNC(=O)c1ccc2c(c1)N=C(C)c1c(C)ccc(C)c1S2 | inconclusive: 50.1 µM [inhibitor, partial curve, poor fit] | 
49 | COc1cccc(NC(=O)c2sc3ncnc(N(C)c4ccccc4)c3c2C)c1 |  | inactive: 15.2%
50 | c1ccc(Cc2nnc(Sc3ccccc3)c3ccccc23)cc1 | inconclusive: 44.7 µM [inhibitor, partial curve, poor fit] | 
51 | O=C(NCC1CCN(Cc2ccc(F)cc2)CC1)C1CCCN(c2ncnc3c2nc2n3CCCCC2)C1 (stereo unspecified) |  | inactive: 9.28%
52 | Cc1ccc(-c2nnn(CC(O)COc3ccc(C)cc3C)n2)cc1 (stereo unspecified) | inconclusive: 35.5 µM [inhibitor, single point] | 
53 | Cc1ccc(NC(=S)Nc2cccnc2)c(S(=O)(=O)N2CCCCC2)c1 | inconclusive: 50.1 µM [inhibitor, partial curve, poor fit] | 
54 | Cc1cnc(NC2=NCCC2)s1 |  | inactive: -3.22%
55 | COc1ccc(N2CCN(c3ccc(-c4nc(-c5ccccc5C)no4)cc3[N+](=O)[O-])CC2)cc1 | inconclusive: 44.7 µM [inhibitor, partial curve, poor fit] | 
56 | CN(CCO)c1cc(Sc2nc3ccccc3s2)c2nonc2c1[N+](=O)[O-] | inconclusive: 12.6 µM [inhibitor, full curve] | 
57 | COC[C@H]1CCCN1C(=O)[C@@H](C)C1CC[C@@]2(C)CC[C@H](NC(=O)c3ccc(C#N)cc3)[C@@H](C)[C@@H]2[C@H]1O (stereo partly specified) |  | inactive: 46.4%
58 | Cc1ccc(-c2ccc(C(=O)Nc3cccc(F)c3)o2)c2ccccc12 | inconclusive: 31.6 µM [inhibitor, partial curve] | 
59 | O=C1c2cccnc2-c2ncccc21 |  | inactive: -4.07%
60 | Cc1nc(SC(C)C(=O)c2c(N)n(C)c(=O)n(C)c2=O)c2c(C)c(C)sc2n1 (stereo unspecified) | inconclusive: 70.8 µM [inhibitor, partial curve, poor fit] | 
61 | O=C(Cc1cccc2ccccc12)NCC(=O)N1CCN(Cc2cccc(C(F)(F)F)c2)CC1 |  | inactive: -7.88%
62 | Cc1ccc(-c2nc3ccccc3[nH]2)cc1NC(=O)/C=C/c1ccco1 |  | inactive: -29.6%
63 | O=C(NC1CCCC1)C1CCCN1C(=O)Nc1ccc(Cl)cc1 (stereo unspecified) | inconclusive: 126 µM [inhibitor, single point] | 
64 | COc1ccc(OC)c(S(=O)(=O)Nc2ccc(-c3cn4ccc(C)nc4n3)cc2)c1 | inconclusive: 89.1 µM [inhibitor, single point] | 
65 | NC(=O)c1ccsc1NC(=O)COC(=O)c1ccc(Br)cc1 | inconclusive: 25.1 µM [inhibitor, single point] | 
66 | COc1cc(/C=N/O)cc(Br)c1OC(C)C | inconclusive: 141 µM [inhibitor, single point] | 

In a second layout: entries from further up
Row	SMILES	Potency	activity change, negative = inhibition
64	COc1ccc(OC)c(S(=O)(=O)Nc2ccc(-c3cn4ccc(C)nc4n3)cc2)c1	inconclusive: 89.1 µM [inhibitor, single point]	
65	NC(=O)c1ccsc1NC(=O)COC(=O)c1ccc(Br)cc1	inconclusive: 25.1 µM [inhibitor, single point]	

3 of these compounds in another layout.

| Row | SMILES | Potency | activity change, negative = inhibition |
| --- | --- | --- | --- |
| 59 | O=C1c2cccnc2-c2ncccc21 |  | inactive: -4.07% |
| 60 | Cc1nc(SC(C)C(=O)c2c(N)n(C)c(=O)n(C)c2=O)c2c(C)c(C)sc2n1 (stereo unspecified) | inconclusive: 70.8 µM [inhibitor, partial curve, poor fit] |  |
| 61 | O=C(Cc1cccc2ccccc12)NCC(=O)N1CCN(Cc2cccc(C(F)(F)F)c2)CC1 |  | inactive: -7.88% |
